In all, about 320,000 compounds went through this assay and about 2,100 (0.66%) were called active. This list was built around the results that the source calls inconclusive (neither active nor inactive); the mix of calls is not that of the screen. Calls follow the shape of the dose curve; as a rule, active = well fitted inhibition curve with a large enough effect in the signal ratio, with a control signal flat (not every such curve was filed as active); inconclusive = small, poorly fitted or top-dose-only effect, or effect the other way, or a change in a side signal; inactive = flat fitted curve, though single readings scatter; the % refers to the signal ratio. Where the call is inconclusive, the potency comes from a doubtful curve fit.
Experiment: qHTS Assay for Lipid Storage Modulators in Drosophila S3 Cells
Conditions: BODIPY lipid droplet fluorescence, 18-24 h, cells fed with added oleic acid; lipid storage change, negative = inhibition: at 46.1 µM (top of the series) unless noted
How it was run: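 Drosophila S3 cells loaded with oleic acid (400 uM, as added) and compounds at several concentrations; lipid droplets imaged by 488-nm laser-scanning cytometry, 500–530 nm intensity and object ratio to cell channel. Percent activity normalized to 20 uM Triacsin C.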
% is scaled to controls: 0 for no effect and ±100 for the full control effect; potency is read from the fitted curve at half-maximal effect.

Lipid storage change, negative = inhibition, inconclusive:
O=C(c1cccc(S(=O)(=O)N2CCCC2)c1)N(Cc1ccco1)C1CCS(=O)(=O)C1 (configuration not stated) -4.26%
Cc1cccc(N/C=C/C(=C(C#N)C#N)N(C)C)c1 44.5%
Cc1ccc2nc(NCC(N)=O)nc(-c3ccccc3)c2c1 -16.2%
Cc1nnc(Oc2ccc([N+](=O)[O-])cc2)c2ccccc12 34.7%
COc1ccc(NC(C)C(=O)N/N=C/c2cc(Br)ccc2OC)cc1 (configuration not stated) 93%
O=C(O)CCSCC(=O)c1ccc2c(c1)OCCO2 -44%
CN(C)S(=O)(=O)c1ccc(C(=O)OCC2CC2(Cl)Cl)cc1 (configuration not stated) -13.2%
CCOc1ccc(S(=O)(=O)Nc2ccc(C(=O)N3CCCC3)cc2)cc1 14.1%
CCCC[C@H]1COCCS(=O)(=O)N1Cc1cccc(F)c1 19.5%
CCOc1ccc(NC(=O)[C@@H]2CCCN2C(=O)c2cccs2)cc1S(=O)(=O)N1CCOCC1 34.5%
CO/C=C\C=C/c1nnn(-c2ccc(Cl)cc2)n1 -2.66%
Cc1ccccc1-n1ncc2c1CC(C)(C)CC2NC(=O)CCC1=NNC(=O)CC1 (configuration not stated) 70.5%
O=C(NC(=O)N1CCN(c2ccc([N+](=O)[O-])cn2)CC1)c1ccccc1F -5.06%
CN(CC(=O)NC(=O)Nc1ccccc1F)Cc1ccccc1 -22%
COc1ccc(NC(=O)COC(=O)c2cc(C)oc2C)c([N+](=O)[O-])c1 5.94%
Cc1ccc(-c2c(C(=O)NCc3ccccc3)oc(=O)c3ccccc23)cc1 19.2%
CCN(CC(=O)Nc1ccccc1OC)C(=O)CSCc1ccc(C)cc1 9.23%
Cc1ccc(S(=O)(=O)N2CCCCC2)cc1NC(=O)CCNC(=O)c1ccc([N+](=O)[O-])cc1 -88.7%
CC(OC(=O)Cn1cnc2ccccc2c1=O)C(=O)N(C)c1ccccc1 (configuration not stated)
Cc1nn(-c2ccccc2)c2c1C(c1cccc([N+](=O)[O-])c1)N(c1ccccc1)C(=O)N2 (configuration not stated) 0.102%
CCCCn1cc(C(=O)c2cc(Br)ccc2O)cc(C#N)c1=O -26.2%
COc1ccccc1CNC(=O)C1(c2ccc(Cl)cc2)CC1 12.1%
CC(C)CC1NC(=O)N(CC(=O)c2ccc3c(c2)OCCO3)C1=O (configuration not stated) -1.43%
COCCNC(=O)c1ccc(N2CC3CC(C2)c2cccc(=O)n2C3)c(NC(=O)c2cc(OC)cc(OC)c2)c1 (configuration not stated) -25.8%
CC(C)(C)C(=O)CSc1nc2c(c(-c3cccs3)c1C#N)CCC2 -5.68%
COc1ccccc1CNS(=O)(=O)c1ccc2c(c1)CC(C)N2C(=O)C1CC1 (configuration not stated) -162%
COc1ccc2occ(NC(C)=O)c2c1 -6.28%
COc1ccccc1-c1csc2ncnc(Sc3nnnn3C)c12 -16.2%
O=C(NCc1ccco1)c1cccs1 69.7%
Brc1cccc(-c2nnc3n2CCCCC3)c1 23.6%
COc1ccc(C2CC(=O)C=C(NCc3ccccc3)C2)cc1 (configuration not stated) 3.86%
Cc1cnc(C(=O)OCC(=O)N=c2sccn2Cc2ccccc2Cl)cn1 -17.5%
O=C(NCc1ccccc1)C1(c2cccc(F)c2)CCCC1 17.7%
COc1ccc(CN2CCN(Cc3nc4ccccc4s3)CC2CCO)c(C)c1C (configuration not stated) 17.2%
O=C(N/N=C/c1ccccn1)c1cccc(NC(=O)c2ccccc2Cl)c1 -13.2%
COc1ccc(C2=NS(=O)(=O)N(C)C(C(=O)Nc3cc(OC)c(OC)c(OC)c3)=C2)cc1 12.5%
NC(=O)CC(NC(=O)c1ccccc1)c1ccc(N2CCc3ccccc3C2)c([N+](=O)[O-])c1 (configuration not stated) -18.6%
CC(Sc1ccc(S(=O)(=O)N2CCCC2)cn1)C(N)=O (configuration not stated) 48%
Cc1[nH]c2ccccc2c1SCC(=O)Nc1nccs1 -4.83%
Cc1nnc(SCC(=O)N2CCc3ccccc32)n1-c1ccccc1 1.11%
COC(=O)CSc1cccc2c1C(=O)CC2c1ccccc1 (configuration not stated) 82.6%
CCCc1nc2sc3c(=O)[nH]cnc3c2c2c1CCCC2 4.64%
COc1cccc(C(=O)CN2CCC(NC(=O)NC3CCCCC3)CC2)c1 -13.8%
COc1ccccc1C(=O)NNC(=S)NC(=O)c1cc(OC)c(OC)c(OC)c1 26.7% [at 9.22 µM]
CCc1ccccc1NC(=O)C1CCN(C(=O)c2ccc([N+](=O)[O-])cc2)CC1 14.7%
O=[N+]([O-])c1ccc(N2CCN(C(=S)Nc3ccc(F)cc3F)CC2)cc1 -23.9%
CC(=O)Oc1c(S(=O)(=O)c2ccc(C)cc2)c(C)nn1C(C)(C)C -30.5%
O=C(c1cc(-c2ccc(Br)cc2)on1)N1CCCCCC1 46.5%
O=C(N/N=C1\NC(=O)C(CO)(CO)S1)c1ccccc1 17.8%
CC(C)OCCCNC(=O)Cn1nc(-c2ccccc2)ccc1=O 10.8%
CN(CP(=O)(O)CCc1ccccc1)S(C)(=O)=O 91%

Lipid storage change, negative = inhibition, inactive:
CCOC(=O)C1=C(CS(=O)(=O)c2ccccc2)NC(=O)NC1c1cccc(OC)c1 (configuration not stated) 8.29%
O=C(CN1C(=O)CCS(=O)(=O)c2ccccc21)Nc1cccc(Cl)c1 0.523%

Potency, inconclusive:
CCCc1cc(C(=O)N2CCCC(CO)(CCCc3ccccc3)C2)n(C)n1 (configuration not stated) 4.61 µM [falling, full curve, poor fit]
Cc1ccc(OCCOCCN(C)C)c(Cl)c1 2.06 µM [falling, full curve]
COc1ccc(/C=C/c2onc(C)c2S(=O)(=O)N2CCC(C(=O)N3CCCCCC3)CC2)cc1 5.8 µM [activator, partial curve]
COC(=O)c1ccccc1C(=O)N(Cc1cccnc1)CC1CCCN(C2CCCCC2)C1 (configuration not stated) 29.1 µM [activator, single point]
O=C(O)COc1ccccc1/C=C1\SC(=S)N(NC(=O)c2ccccc2O)C1=O 29.1 µM [activator, partial curve]
Cc1ccc(C)c(C(=O)CSc2nnnn2-c2cccnc2)c1 0.206 µM [activator, full curve]
O=C(NCCc1ccc(Cl)cc1)c1cccc(N2CCCC2=O)c1 29.1 µM [falling, single point]
CN(C)CCCN(C(=O)c1ccc2c(c1)CCCC2)c1nc2c(F)cccc2s1 18.4 µM [falling, single point]
CC(C)c1nc2ccccc2c2nnc(SCC(=O)NCc3ccco3)n12 2.59 µM [activator, partial curve]
C=CCNC(=O)c1cc2c(=O)n3ccccc3nc2s1 0.58 µM [falling, single point]
CC(OC(=O)c1cccc(S(=O)(=O)N2CCCC2)c1)C(=O)c1ccccc1 (configuration not stated) 29.1 µM [falling, single point]
C=CCn1cn[nH]c1=S 35.5 µM [falling, single point]
COc1ccc(CNC(=O)C(C#N)c2nc3ccccc3nc2N2CCCC2)cc1 (configuration not stated) 25.9 µM [falling, single point]
CSC(=NC#N)N1CCN(C(c2ccccc2)c2ccccc2)CC1 29.1 µM [activator, single point]
Cc1ccc(C)c(C(=O)CCC(=O)N2CCN(c3cccc(C(F)(F)F)c3)CC2)c1 29.1 µM [falling, single point]
Cc1ccc(CSCC(=O)N2CCN(c3ccc(F)cc3)CC2)cc1 14.6 µM [falling, partial curve, poor fit]
CC(C)Cn1c(SCC(=O)c2c(N)n(C)c(=O)n(C)c2=O)nc2ccccc21 2.59 µM [falling, full curve, poor fit]
COc1ccc(NC(=O)CCC(=O)Nc2ccc3nc(N4CCOCC4)cc(C)c3c2)c(OC)c1 0.58 µM [activator, single point]
Nc1c(C(=O)Nc2ccccc2)sc2nc3c(c(-c4ccco4)c12)CCC3 0.092 µM [activator, full curve, poor fit]
COCCCn1c(C)cc(C(=O)COC(=O)C23CC4CC(CC(O)(C4)C2)C3)c1C 0.206 µM [activator, full curve, poor fit]
O=S(=O)(/N=C(/Nc1ccccn1)c1ccc(Cl)cc1)c1ccc(Cl)cc1 14.6 µM [falling, partial curve, poor fit]
O=C(N/N=C/c1cc2c(cc1[N+](=O)[O-])OCO2)c1ccc2c(c1)OCO2 20.6 µM [activator, single point]

No new results follow: entries from further up.
Potency, inconclusive:
CC(C)c1nc2ccccc2c2nnc(SCC(=O)NCc3ccco3)n12 2.59 µM [activator, partial curve]
C=CCNC(=O)c1cc2c(=O)n3ccccc3nc2s1 0.58 µM [falling, single point]
CC(OC(=O)c1cccc(S(=O)(=O)N2CCCC2)c1)C(=O)c1ccccc1 (configuration not stated) 29.1 µM [falling, single point]
C=CCn1cn[nH]c1=S 35.5 µM [falling, single point]
COc1ccc(CNC(=O)C(C#N)c2nc3ccccc3nc2N2CCCC2)cc1 (configuration not stated) 25.9 µM [falling, single point]
CSC(=NC#N)N1CCN(C(c2ccccc2)c2ccccc2)CC1 29.1 µM [activator, single point]
Cc1ccc(C)c(C(=O)CCC(=O)N2CCN(c3cccc(C(F)(F)F)c3)CC2)c1 29.1 µM [falling, single point]
Cc1ccc(CSCC(=O)N2CCN(c3ccc(F)cc3)CC2)cc1 14.6 µM [falling, partial curve, poor fit]
CC(C)Cn1c(SCC(=O)c2c(N)n(C)c(=O)n(C)c2=O)nc2ccccc21 2.59 µM [falling, full curve, poor fit]
COc1ccc(NC(=O)CCC(=O)Nc2ccc3nc(N4CCOCC4)cc(C)c3c2)c(OC)c1 0.58 µM [activator, single point]
Nc1c(C(=O)Nc2ccccc2)sc2nc3c(c(-c4ccco4)c12)CCC3 0.092 µM [activator, full curve, poor fit]

Random excerpt: 2 records from the list
Potency, inconclusive:
Cc1ccc(CSCC(=O)N2CCN(c3ccc(F)cc3)CC2)cc1 14.6 µM [falling, partial curve, poor fit]
C=CCNC(=O)c1cc2c(=O)n3ccccc3nc2s1 0.58 µM [falling, single point]

Following part:

Potency, active:
O=C(COC(=O)c1cc2ccccc2o1)NCc1ccco1 0.206 µM
CC1CN(C(=O)c2ccccc2OCc2ccc(Cl)cc2Cl)CC(C)O1 (configuration not stated) 0.651 µM
